Earlier results, collected in patent US20070123555A1, “PREVENTION AND TREATMENT OF HEARING DISORDERS” (Cypress Bioscience, Inc., priority 2005, published 2007).
For at least one compound, name, drawing or mass did not settle the structure.

Tested on: auditory processes
Settings: elderly patients, preliminary results; cited from earlier work

Which “impact on auditory processes” value does the source give for CN(C)CCCC1(c2ccc(F)cc2)OCc2cc(C#N)ccc21 (stereo not shown) [citalopram] here?
The value was “positive impact on auditory processes”.
